In article PMC9592557, “Structures of SAS-6 coiled coil hold implications for the polarity of the centriolar cartwheel” (Structure(London, England:1993), 2022) one finds binding data, which are given here for four molecules.

Common to all, as to experiment: ITC; dilution ITC, step: higher-order complex to coiled-coil dimers; 1.82 mM monomer in the syringe injected into buffer alone, 20°C, 10 mM K-PIPES pH 7.2, dissociation model; both purified
Background: Isothermal titration calorimetry measures the heat released or taken up as one component is titrated into another.

The target in experiment [1] is CrSAS-6_CCLE (C. reinhardtii) (UniProt A9CQL4).
Experiment [2] has as its target CrSAS-6_CCVD (C. reinhardtii) (UniProt A9CQL4).
Experiment [3] addresses CrSAS-6_CCLQ (C. reinhardtii) (UniProt A9CQL4).
Experiment [4] addresses CrSAS-6_CCLD (C. reinhardtii) (UniProt A9CQL4).

Residue numbers refer to the chain shown, from its start. Results are given in words; binding and its absence hold for the method and conditions named. Some results given as binding are weak or reduced against the parent protein; the word gives no strength.

B1: CrSAS-6_CCLE (domain or fragment, UniProt A9CQL4 277-390)
chain: KLREVKYELDTKVSELSHKLGSSEGSNRSAEEETARLRSLNQQLSSSKHALEIQLNEAKAKVLALDEKAQSQGDVIEQQRGRLRDMEAALRQTEQRCADLRDTLASAEGRAKEA
For the molecule B1, the binding entry in experiment [1] is reported as “binds weakly”.

B2: CrSAS-6_CCVD (domain or fragment, UniProt A9CQL4 277-390)
chain: B1 chain with A30L, A50E, V75E, D85N
Turning to B2, the binding result in experiment [2] is reported as “binds weakly”.

B3: CrSAS-6_CCLQ (domain or fragment, UniProt A9CQL4 277-390)
chain: B1 chain with A30L, L44A, A50E, Q54A
As for B3, the binding entry in experiment [3] was “binds weakly”.

B4: CrSAS-6_CCLD (domain or fragment, UniProt A9CQL4 277-390)
chain: B1 chain with A30L, A50E, L63E, D102N
For B4, the binding result in experiment [4] was “binds weakly”.
